± gives the standard error. Many entries were measured with a wide error.
B1: glmS ribozyme (parent)
chain: AUAAAAGCGCCAGAACUACAGAAAUGUAGUUGACGAGGAGGAGGUUUAUCGAAUUUUCGGCGGAUGCCUCCAAA

Variants of: B1
Assay: self-cleavage kobs at 10000 uM GlcN6P; higher = faster cleavage; RNA array
Details: with glucosamine-6-phosphate
How it was run: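 Barcoded ribozyme variants on sequenced MiSeq chips were transcribed in situ by E. coli RNA polymerase and followed at 37 °C through a hybridised Cy3 probe. Glucosamine-6-phosphate at 40 μM to 10 mM in HEPES/KCl/Mg(OAc)2 buffer was flowed in, and tiles were imaged over ~14 h. Signals were normalised to baseline and to non-cleaving reference variants, and per-tile medians were fit to one- or two-exponential decays to give kobs. Weighted Michaelis–Menten fits across concentrations gave kcat and KM.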

Variant | self-cleavage kobs at 10000 uM GlcN6P [s⁻¹]
U47A G66C C67U | 3.02e-05 ± 1.5e-05
U47G C61U C70U | 2.72e-05 ± 2.1e-05
C50A C67A C70U | 2.56e-05 ± 1.8e-05
C50G C58G | 0.000164 ± 9.9e-05
C50G U65A | 2.04e-05 ± 1.6e-05
C50U U56A | 1.91e-05 ± 1.3e-05
A52U U69G | 1.47e-05 ± 8.4e-06
U55A G60A | 1.96e-05 ± 1.9e-05
U57C C58U | 1.76e-05 ± 1e-05
C58A G59A | 1.06e-05 ± 9.3e-06
C58U C70G | 1.22e-05 ± 9.4e-06
C58U G66A | 2.16e-05 ± 1.4e-05
C58U U65A C68G | 1.77e-05 ± 1.6e-05
G59U C67A | 1.55e-05 ± 1.3e-05
C61G C71G | 1.8e-05 ± 1.4e-05
C67U C68G | 1.67e-05 ± 1.1e-05
C68U | 0.01 ± 0.0058

Some of the entries so far, with tabs.
Variant	self-cleavage kobs at 10000 uM GlcN6P [s⁻¹]
C58A G59A	1.06e-05 ± 9.3e-06
C58U C70G	1.22e-05 ± 9.4e-06
